Results published in article PMC10506284.
No constants are given. Whether binding was seen depends on the method and setting. In cells and extracts the contact can be indirect. Here binding means that the protein was enriched with, or labelled near, the bait; the list need not be complete. Sequences can lack the tags named with a protein.

By UniProt entry, the sequences of proteins in these tests, tags left out.
UniProt P08670: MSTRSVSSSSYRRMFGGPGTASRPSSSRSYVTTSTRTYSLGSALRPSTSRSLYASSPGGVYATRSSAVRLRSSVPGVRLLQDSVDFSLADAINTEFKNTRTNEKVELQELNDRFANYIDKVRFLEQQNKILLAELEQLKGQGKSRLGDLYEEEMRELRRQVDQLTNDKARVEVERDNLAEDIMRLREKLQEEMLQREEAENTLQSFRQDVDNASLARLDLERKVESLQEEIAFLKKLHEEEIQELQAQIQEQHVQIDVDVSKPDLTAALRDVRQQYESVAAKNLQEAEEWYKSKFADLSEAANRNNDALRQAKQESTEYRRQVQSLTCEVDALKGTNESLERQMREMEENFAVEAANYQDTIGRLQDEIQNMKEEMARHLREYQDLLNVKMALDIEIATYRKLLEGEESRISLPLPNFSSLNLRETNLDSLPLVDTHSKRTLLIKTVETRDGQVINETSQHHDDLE

Target: T1, HA-tagged Ladinin-1 (LAD1), full-length open reading frame (human) (UniProt O00515)
T1 sequence: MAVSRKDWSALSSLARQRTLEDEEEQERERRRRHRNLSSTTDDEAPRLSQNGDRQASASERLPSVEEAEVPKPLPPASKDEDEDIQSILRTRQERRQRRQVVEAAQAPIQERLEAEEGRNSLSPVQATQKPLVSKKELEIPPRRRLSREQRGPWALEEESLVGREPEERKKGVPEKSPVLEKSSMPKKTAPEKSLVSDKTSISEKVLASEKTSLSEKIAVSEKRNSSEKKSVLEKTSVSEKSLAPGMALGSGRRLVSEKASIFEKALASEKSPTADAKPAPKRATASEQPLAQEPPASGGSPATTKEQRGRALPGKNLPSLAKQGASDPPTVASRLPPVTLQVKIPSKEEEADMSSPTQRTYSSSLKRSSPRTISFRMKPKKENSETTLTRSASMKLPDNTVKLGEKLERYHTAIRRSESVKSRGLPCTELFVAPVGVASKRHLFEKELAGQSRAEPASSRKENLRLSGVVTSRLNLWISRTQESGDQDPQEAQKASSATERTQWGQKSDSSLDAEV
Test: affinity purification with mass spectrometry; HA immunoprecipitate from MGC803 cells overexpressing HA-LAD1, SDS-PAGE, bands close to 50-70 kDa excised and identified by mass spectrometry

In the case of “Vimentin, endogenous in MGC803 cells (from UniProt P08670 1-466)”, the binding is reported as “binds”.
